The supplement of paper PMC12067093, “Discovery and optimisation of a covalent ligand for TRIM25 and its application to targeted protein ubiquitination” (Chemical Science, 2025)
The other results are listed elsewhere or left out.

Chains of the proteins cited; added tags and fusions are not shown. Lines headed by an entry give the natural chain unless they say otherwise; changes in a name come on top.
UniProt Q96CX6, whole entry, looked up: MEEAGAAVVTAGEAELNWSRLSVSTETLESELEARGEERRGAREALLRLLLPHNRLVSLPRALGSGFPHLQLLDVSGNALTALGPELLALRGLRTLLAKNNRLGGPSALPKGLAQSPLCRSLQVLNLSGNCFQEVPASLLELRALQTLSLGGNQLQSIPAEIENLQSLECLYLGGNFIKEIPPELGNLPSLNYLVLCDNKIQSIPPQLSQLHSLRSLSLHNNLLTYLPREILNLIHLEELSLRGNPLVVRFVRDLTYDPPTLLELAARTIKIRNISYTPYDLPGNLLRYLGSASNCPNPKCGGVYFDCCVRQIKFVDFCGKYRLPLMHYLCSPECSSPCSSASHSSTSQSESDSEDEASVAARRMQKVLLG
UniProt P49917: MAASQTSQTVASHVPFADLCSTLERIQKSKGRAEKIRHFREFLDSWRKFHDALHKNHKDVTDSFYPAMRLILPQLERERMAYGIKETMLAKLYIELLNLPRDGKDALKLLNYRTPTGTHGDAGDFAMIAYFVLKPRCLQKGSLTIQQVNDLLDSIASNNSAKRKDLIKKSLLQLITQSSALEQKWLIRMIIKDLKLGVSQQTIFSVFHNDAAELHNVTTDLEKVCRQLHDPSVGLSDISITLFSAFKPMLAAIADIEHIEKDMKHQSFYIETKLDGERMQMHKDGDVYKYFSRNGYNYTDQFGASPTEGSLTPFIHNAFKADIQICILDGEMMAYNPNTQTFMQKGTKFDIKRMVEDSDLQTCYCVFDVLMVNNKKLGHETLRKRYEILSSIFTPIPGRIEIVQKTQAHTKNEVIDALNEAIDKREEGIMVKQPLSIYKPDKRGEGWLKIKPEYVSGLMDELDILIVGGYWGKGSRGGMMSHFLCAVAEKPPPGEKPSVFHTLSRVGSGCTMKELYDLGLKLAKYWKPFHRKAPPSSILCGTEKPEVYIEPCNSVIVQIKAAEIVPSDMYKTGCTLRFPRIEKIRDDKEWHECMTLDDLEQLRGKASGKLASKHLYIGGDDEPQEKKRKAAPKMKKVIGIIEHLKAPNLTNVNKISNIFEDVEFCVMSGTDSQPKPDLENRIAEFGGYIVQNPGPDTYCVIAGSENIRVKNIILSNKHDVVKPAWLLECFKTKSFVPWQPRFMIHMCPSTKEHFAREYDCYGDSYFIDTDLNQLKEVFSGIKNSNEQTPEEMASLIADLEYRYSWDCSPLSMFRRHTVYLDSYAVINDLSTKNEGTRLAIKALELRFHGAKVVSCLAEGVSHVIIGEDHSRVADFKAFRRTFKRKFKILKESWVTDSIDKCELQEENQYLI
UniProt Q96II8: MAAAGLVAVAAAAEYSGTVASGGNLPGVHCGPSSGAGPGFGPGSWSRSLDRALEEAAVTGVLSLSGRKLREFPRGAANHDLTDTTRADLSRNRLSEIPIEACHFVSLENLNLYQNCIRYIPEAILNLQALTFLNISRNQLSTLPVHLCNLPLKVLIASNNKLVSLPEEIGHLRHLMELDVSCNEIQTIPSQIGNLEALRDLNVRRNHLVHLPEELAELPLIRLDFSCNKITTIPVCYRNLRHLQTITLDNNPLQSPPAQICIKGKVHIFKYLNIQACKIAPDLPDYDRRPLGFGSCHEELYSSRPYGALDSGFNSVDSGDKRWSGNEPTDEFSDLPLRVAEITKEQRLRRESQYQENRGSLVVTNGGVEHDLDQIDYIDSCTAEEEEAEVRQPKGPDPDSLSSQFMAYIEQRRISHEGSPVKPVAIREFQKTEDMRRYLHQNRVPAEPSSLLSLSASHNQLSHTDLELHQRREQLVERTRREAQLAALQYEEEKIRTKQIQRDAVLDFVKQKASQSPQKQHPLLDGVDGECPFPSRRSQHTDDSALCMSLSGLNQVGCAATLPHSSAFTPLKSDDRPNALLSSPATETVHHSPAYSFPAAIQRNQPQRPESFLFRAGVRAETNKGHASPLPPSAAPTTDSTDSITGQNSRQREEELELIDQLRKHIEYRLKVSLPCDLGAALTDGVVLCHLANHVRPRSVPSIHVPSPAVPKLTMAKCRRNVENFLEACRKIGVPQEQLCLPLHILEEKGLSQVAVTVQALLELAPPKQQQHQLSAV
UniProt P48059, whole entry, looked up: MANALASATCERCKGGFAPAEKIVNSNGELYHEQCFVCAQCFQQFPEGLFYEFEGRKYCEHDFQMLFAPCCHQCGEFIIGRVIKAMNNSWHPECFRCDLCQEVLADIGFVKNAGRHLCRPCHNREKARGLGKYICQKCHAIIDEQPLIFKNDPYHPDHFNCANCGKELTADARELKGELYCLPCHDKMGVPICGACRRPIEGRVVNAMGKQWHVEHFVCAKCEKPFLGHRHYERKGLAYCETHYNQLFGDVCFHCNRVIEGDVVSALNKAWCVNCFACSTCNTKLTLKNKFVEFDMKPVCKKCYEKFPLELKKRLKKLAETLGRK
UniProt Q7L5N7: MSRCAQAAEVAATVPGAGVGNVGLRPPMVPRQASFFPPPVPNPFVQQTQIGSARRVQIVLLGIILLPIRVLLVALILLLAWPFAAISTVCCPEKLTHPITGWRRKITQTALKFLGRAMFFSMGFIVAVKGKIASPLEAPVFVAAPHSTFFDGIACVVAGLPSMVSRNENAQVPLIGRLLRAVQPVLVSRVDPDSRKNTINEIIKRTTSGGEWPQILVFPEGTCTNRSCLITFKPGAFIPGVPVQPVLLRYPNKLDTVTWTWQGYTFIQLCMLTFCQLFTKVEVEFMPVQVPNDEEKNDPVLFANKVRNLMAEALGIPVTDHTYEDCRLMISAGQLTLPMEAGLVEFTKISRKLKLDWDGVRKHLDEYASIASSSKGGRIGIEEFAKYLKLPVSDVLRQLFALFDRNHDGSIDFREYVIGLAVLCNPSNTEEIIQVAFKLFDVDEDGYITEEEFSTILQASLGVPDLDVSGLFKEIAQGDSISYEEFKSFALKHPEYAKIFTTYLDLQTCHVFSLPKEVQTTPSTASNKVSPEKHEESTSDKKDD
UniProt Q9UK45: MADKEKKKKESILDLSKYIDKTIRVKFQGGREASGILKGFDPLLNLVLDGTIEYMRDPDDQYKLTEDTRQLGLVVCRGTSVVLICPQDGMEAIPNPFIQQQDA
UniProt P18858, whole entry, looked up: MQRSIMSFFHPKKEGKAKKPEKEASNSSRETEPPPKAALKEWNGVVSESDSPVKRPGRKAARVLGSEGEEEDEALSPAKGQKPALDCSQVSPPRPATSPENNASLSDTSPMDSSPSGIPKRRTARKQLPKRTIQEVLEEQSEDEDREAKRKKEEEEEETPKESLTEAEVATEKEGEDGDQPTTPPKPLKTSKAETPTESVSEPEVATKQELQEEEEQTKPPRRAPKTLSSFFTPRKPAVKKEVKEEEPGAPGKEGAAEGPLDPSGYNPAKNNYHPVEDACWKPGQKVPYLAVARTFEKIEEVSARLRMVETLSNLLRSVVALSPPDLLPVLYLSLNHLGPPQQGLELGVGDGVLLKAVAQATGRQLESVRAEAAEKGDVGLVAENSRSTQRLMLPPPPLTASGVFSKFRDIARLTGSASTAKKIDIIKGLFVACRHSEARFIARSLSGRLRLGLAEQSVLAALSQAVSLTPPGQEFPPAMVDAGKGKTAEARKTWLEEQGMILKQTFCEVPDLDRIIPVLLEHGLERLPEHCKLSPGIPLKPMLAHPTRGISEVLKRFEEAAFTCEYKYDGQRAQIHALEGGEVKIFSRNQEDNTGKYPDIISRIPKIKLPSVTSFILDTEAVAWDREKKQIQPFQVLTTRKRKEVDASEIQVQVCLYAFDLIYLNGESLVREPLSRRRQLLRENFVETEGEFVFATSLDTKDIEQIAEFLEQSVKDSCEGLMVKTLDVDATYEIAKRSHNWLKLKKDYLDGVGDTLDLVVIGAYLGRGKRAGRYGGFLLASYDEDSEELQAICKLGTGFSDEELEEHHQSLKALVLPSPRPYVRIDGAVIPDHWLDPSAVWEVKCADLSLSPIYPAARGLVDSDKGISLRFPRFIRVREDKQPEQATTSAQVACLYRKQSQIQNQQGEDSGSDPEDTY
UniProt O60711: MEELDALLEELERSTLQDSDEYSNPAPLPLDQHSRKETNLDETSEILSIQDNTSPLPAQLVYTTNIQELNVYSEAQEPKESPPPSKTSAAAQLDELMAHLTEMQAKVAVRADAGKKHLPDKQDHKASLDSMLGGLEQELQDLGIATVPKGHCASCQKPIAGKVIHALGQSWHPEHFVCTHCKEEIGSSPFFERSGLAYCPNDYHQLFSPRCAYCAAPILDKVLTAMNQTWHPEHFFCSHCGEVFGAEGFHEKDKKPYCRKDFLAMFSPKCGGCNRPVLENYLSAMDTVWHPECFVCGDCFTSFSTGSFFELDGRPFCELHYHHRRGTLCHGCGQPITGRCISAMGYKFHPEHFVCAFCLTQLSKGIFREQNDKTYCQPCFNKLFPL
UniProt Q9Y546: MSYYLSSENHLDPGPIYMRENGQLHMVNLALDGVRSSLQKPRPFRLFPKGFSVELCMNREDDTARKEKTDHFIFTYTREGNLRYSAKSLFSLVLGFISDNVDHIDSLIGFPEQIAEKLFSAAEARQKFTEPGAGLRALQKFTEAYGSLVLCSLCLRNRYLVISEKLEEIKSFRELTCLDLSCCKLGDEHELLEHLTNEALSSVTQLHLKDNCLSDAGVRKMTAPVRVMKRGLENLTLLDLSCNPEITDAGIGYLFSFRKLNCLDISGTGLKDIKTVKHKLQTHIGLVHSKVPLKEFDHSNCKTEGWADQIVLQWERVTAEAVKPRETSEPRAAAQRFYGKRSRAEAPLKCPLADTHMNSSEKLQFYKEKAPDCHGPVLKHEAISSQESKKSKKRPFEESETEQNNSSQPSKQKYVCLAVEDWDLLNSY
UniProt Q96B70: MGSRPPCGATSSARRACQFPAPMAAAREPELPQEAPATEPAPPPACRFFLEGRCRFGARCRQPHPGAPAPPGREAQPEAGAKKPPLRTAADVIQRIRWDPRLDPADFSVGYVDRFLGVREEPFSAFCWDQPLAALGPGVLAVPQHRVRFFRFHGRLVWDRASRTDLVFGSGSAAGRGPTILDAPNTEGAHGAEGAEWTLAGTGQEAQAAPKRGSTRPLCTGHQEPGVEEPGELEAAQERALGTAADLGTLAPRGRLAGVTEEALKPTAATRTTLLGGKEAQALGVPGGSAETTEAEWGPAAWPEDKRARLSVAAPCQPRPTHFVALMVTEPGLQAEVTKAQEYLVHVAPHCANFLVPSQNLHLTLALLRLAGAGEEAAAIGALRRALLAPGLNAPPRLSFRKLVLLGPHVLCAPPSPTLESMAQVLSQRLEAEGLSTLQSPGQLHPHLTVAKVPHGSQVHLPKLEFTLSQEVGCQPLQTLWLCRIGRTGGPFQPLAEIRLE
UniProt Q3MHD2: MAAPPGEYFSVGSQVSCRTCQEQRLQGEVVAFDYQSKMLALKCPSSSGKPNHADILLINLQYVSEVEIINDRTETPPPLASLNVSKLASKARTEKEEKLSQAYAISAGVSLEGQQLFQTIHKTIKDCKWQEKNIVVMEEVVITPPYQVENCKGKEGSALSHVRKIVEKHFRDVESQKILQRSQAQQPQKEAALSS
UniProt P36776: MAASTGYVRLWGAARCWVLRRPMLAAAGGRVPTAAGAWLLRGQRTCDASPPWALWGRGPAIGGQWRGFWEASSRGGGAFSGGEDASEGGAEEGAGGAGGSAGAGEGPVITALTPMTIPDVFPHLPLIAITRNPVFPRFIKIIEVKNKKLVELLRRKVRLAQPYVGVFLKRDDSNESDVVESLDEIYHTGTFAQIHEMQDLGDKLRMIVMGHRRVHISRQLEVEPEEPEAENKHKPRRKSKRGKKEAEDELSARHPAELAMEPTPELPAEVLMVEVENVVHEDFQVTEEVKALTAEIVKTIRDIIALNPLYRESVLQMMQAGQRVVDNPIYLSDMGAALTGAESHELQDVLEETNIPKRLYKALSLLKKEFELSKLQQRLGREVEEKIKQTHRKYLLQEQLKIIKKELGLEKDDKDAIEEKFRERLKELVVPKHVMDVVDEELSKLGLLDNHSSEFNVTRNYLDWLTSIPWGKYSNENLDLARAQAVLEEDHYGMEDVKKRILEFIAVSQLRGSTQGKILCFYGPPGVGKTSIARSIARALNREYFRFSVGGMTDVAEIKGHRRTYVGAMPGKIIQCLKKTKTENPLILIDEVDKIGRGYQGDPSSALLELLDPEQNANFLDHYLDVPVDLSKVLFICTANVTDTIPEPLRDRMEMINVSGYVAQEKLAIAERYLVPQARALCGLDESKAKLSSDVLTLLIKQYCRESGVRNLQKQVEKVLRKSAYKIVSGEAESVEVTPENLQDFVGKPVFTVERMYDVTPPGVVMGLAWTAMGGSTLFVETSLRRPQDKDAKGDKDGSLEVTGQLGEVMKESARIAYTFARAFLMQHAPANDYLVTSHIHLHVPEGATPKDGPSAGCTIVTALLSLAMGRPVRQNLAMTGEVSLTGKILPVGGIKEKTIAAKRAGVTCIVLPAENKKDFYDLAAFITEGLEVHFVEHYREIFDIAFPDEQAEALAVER

Compound: Cc1cc(ccc1-c1ccccc1)C(=O)N1CCCN(CC1)C(=O)CCl [compound 10]
Assay: probe-labelled cysteine peptide fold change vs DMSO (competition) (log2 fold change); higher = less target engagement (more negative = stronger competition)
Settings: THP-1, incubation time: 4 h
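Also: competitive profiling in live THP-1 cells: cysteine peptides tagged with an iodoacetamide desthiobiotin (IA-DTB) probe, intensity after compound treatment relative to DMSO-treated cells.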

Target | probe-labelled cysteine peptide fold change (10 µM) | probe-labelled cysteine peptide fold change (50 µM)
LRRC41_Q15345_297_CAAALMASR (UniProt Q15345) | -0.357 | -0.525
LRRC8D_Q7L1W4_733_CLDVSYNNISMIPIEIGLLQNLQHLHITGNK (UniProt Q7L1W4) | 0.194 | 0.216
LIMK2_P53671_365_CDEETQK (UniProt P53671) | -0.154 | -0.0694
LRRC58_Q96CX6_131_SLQVLNLSGNCFQEVPASLLELR (UniProt Q96CX6) | 0.0351 | -0.219
LIG4_P49917_510_VGSGCTMK (UniProt P49917) | -0.107 | -0.202
LRRC59_Q96AG4_48_ATILDLSCNK (UniProt Q96AG4) | -0.0204 | -0.101
LRCH3_Q96II8_689_VSLPCDLGAALTDGVVLCHLANHVRPR (UniProt Q96II8) | 0.176 | -0.433
LIMS1_P48059_252_GLAYCETHYNQLFGDVCFHCNR (UniProt P48059) | 0.152 | 0.299
LRMP_Q12912_264_LLESLTPLCEDDNQAQEIIK (UniProt Q12912) | -0.074 | 0.305
LPCAT2_Q7L5N7_4_CAQAAEVAATVPGAGVGNVGLRPPMVPR (UniProt Q7L5N7) | -0.251 | -0.725
LSM7_Q9UK45_76_QLGLVVCR (UniProt Q9UK45) | 0.319 | 0.0239
LGALS9_O00182_102_GMPFDLCFLVQSSDFK (UniProt O00182) | -0.137 | 0.539
LRPPRC_P42704_721_AKYESDMVTGGYAALINLCCR (UniProt P42704) | 0.0495 | -0.146
LIG1_P18858_508_QTFCEVPDLDRIIPVLLEHGLER (UniProt P18858) | -0.0398 | -0.161
LRRC47_Q8N1G4_60_LFTLPLLHYLEVSGCGSLR (UniProt Q8N1G4) | 0.0276 | 0.0952
LRPPRC_P42704_952_LFECDRDQMYYNLLK (UniProt P42704) | 0.0596 | 0.0169
LIG1_P18858_895_QPEQATTSAQVACLYR (UniProt P18858) | -0.0186 | -0.117
LIMS1_P48059_281_AWCVNCFACSTCNTK (UniProt P48059) | 0.00276 | 0.175
LIN54_Q6MZP7_729_CLMSVINSAGK (UniProt Q6MZP7) | 0.193 | -0.0473
LPXN_O60711_199_SGLAYCPNDYHQLFSPR (UniProt O60711) | 0.00976 | -0.00891

Reformatted with each value named: entries from further up
LSM7_Q9UK45_76_QLGLVVCR (UniProt Q9UK45)
  probe-labelled cysteine peptide fold change (10 µM) = 0.319; probe-labelled cysteine peptide fold change (50 µM) = 0.0239
LGALS9_O00182_102_GMPFDLCFLVQSSDFK (UniProt O00182)
  probe-labelled cysteine peptide fold change (10 µM) = -0.137; probe-labelled cysteine peptide fold change (50 µM) = 0.539

More records.

Target | probe-labelled cysteine peptide fold change (10 µM) | probe-labelled cysteine peptide fold change (50 µM)
LRRC42_Q9Y546_151+154_FTEAYGSLVLCSLCLR (UniProt Q9Y546) | -0.00875 | 0.283
LPCAT1_Q8NF37_330_LPADTCLLEFAR (UniProt Q8NF37) | 0.0312 | -0.0673
LIG4_P49917_855_VVSCLAEGVSHVIIGEDHSR (UniProt P49917) | 0.029 | 0.16
LENG9_Q96B70_7_GSRPPCGATSSAR (UniProt Q96B70) | -0.158 | 0.528
LPXN_O60711_340_CISAMGYK (UniProt O60711) | -0.00957 | -0.275
LRRC8D_Q7L1W4_645_MMNVAELELQNCELER (UniProt Q7L1W4) | -0.595 | 0.0779
LTN1_O94822_723_ACPSSDK (UniProt O94822) | 0.117 | -0.394
LRRC58_Q96CX6_119_GLAQSPLCR (UniProt Q96CX6) | -0.121 | -0.519
LSM7_Q9UK45_85_GTSVVLICPQDGMEAIPNPFIQQQDA (UniProt Q9UK45) | 0.204 | -0.291
LIMS1_P48059_300_FVEFDMKPVCK (UniProt P48059) | -0.109 | -0.372
LSM12_Q3MHD2_17_AAPPGEYFSVGSQVSCR (UniProt Q3MHD2) | -0.189 | -0.222
LSG1_Q9H089_547_LLYCHPPPGRDPVTFQHQHQR (UniProt Q9H089) | 0.176 | 0.276
LIMS1_P48059_164_NDPYHPDHFNCANCGK (UniProt P48059) | -0.0284 | -0.215
LIG4_P49917_593_EWHECMTLDDLEQLR (UniProt P49917) | -0.111 | -0.0339
LRCH1_Q9Y2L9_421_AEDCEELLR (UniProt Q9Y2L9) | -0.171 | 0.00799
LSM12_Q3MHD2_20_TCQEQR (UniProt Q3MHD2) | 0.442 | 0.902
LSS_P48449_484_LCDAVAVLLNMR (UniProt P48449) | 0.0147 | 0.0559
LONP1_P36776_682_ALCGLDESK (UniProt P36776) | -0.137 | 0.0146
LIMS1_P48059_240+252+255_GLAYCETHYNQLFGDVCFHCNR (UniProt P48059) | -0.111 | -0.492
